This assay is described as follows: qHTS Assay for Lipid Storage Modulators in Drosophila S3 Cells.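 As to cell number change: cells counted by Cell Tracker Red CMTPX staining in the red channel.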 The settings on record: BODIPY lipid droplet fluorescence, 18-24 h; for cell number change: measured here: cell count max response, cells fed with added oleic acid. The method in brief:
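Drosophila S3 cells loaded with oleic acid (400 uM, as added) and compounds at several concentrations; lipid droplets imaged by 488-nm laser-scanning cytometry, 500–530 nm intensity and object ratio to cell channel. Percent activity normalized to 20 uM Triacsin C.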

Setting [1] is: measured here: cell number channel AC50, cells fed with added oleic acid.
Setting [2] is: measured here: lipid fluorescence (Fed channel) AC50, cells fed with added oleic acid.

This passage reports cell number change and AC50 results from PubChem BioAssay AID2685 (National Center for Advancing Translational Sciences (NCATS), 2010).

This is one part of the list. These are further read-outs of the screen, such as a control signal, another cell line or another target. No call is given for them. Compounds called inactive in the main read-out are mostly missing here. Words in brackets tell the shape of the fitted curve; partial curves, single points and poor fits give uncertain potencies.

As to `O=c1[nH]c2ccc(Cl)cc2c(-c2ccccc2)c1N1CCOCC1`, the cell number change is -69.1%. Under setting [1], the AC50 is 18.4 µM [falling, single point]. Besides, the half-maximal activity concentration (AC50) under setting [2] was 29.1 µM [falling, single point].
For `COC(=O)c1ccc(NC(C)C(=O)OC)c([N+](=O)[O-])c1` (stereo unspecified), the cell number change came to 28.6%. Besides, the half-maximal activity concentration (AC50) under setting [2] is 29.1 µM [rising, partial curve].
On to `O=C(NC(N1CCCCCC1)C(Cl)(Cl)Cl)c1ccccc1Cl` (stereo unspecified), for which the cell number change is -59.3%. Also, the AC50 under setting [1] is 20.6 µM [falling, partial curve]. Moreover, the AC50 under setting [2] was 4.11 µM [falling, partial curve].
In the case of `Cc1ccccc1NC(=O)COC(=O)c1ccccc1SCC(=O)N1CCCC1`, the cell number change is -15%. For the same compound, the half-maximal activity concentration (AC50) under setting [2] is 18.4 µM [falling, single point].
As for `COc1cc(Cl)c(C)cc1NC(=O)Cc1cccs1`, the cell number change was -17.7%. Under setting [2], the half-maximal activity concentration (AC50) is 0.82 µM [falling, full curve].
Take `CC(=O)c1ccc(NC(=O)C2C3C=CC(O3)C2C(=O)O)cc1` (stereo unspecified): the cell number change was determined as 8.33%. Moreover, the concentration at half-maximal activity (AC50) under setting [2] is 29.1 µM [falling, single point].
Consider `CC(C)CNC(=O)c1cnn2c(C(F)(F)F)cc(C(F)(F)F)nc12`, for which the cell number change worked out at 2.25%. Moreover, under setting [2], the AC50 is 3.26 µM [rising, single point].
With `COc1ccc(NC(=O)CN2C(=O)NC(C)(C3CCCCC3)C2=O)c(OC)c1` (stereo unspecified), the cell number change came to 6.52%. Besides, the concentration at half-maximal activity (AC50) under setting [2] was 29.1 µM [falling, single point].
With `COC(=O)C1C(=O)c2c([nH]c(C(=O)OC3CCCC3)c2C)CC1C` (stereo unspecified), the cell number change is -32%. Moreover, the AC50 under setting [2] was 29.1 µM [rising, single point].
In the case of `CCc1nnc(NC(=O)c2ccc(Cl)c(S(=O)(=O)N3CCc4ccccc43)c2)s1`, the cell number change was found to be 14.5%. Under setting [1], the half-maximal activity concentration (AC50) was 4.11 µM [rising, single point]. Moreover, under setting [2], the AC50 was 6.51 µM [rising, single point].
Consider `O=C(COC(=O)[C@@H]1CC(O)CN1S(=O)(=O)c1ccc2c(c1)OCCO2)NCc1ccc(F)cc1` (stereo partly specified), for which the cell number change was 45.9%. In addition, the AC50 under setting [1] is 6.51 µM [rising, full curve, poor fit]. The concentration at half-maximal activity (AC50) under setting [2] is 6.51 µM [rising, partial curve].
In the case of `O=C(OCC(=O)c1cccs1)c1ccccc1`, the cell number change is -19.4%.
As to `COc1ccc(N2C(=O)/C(=C\c3ccco3)N=C2SCC(=O)NC(C)(C)C)cc1Cl`, the cell number change was -13.2%. In addition, the concentration at half-maximal activity (AC50) under setting [2] is 0.184 µM [falling, full curve, poor fit].
On to `Nc1nc(N)c(N=Nc2ccc(Cl)cc2)c(=O)[nH]1`, for which the cell number change is 41.7%. Under setting [1], the AC50 is 3.66 µM [rising, full curve]. Further, under setting [2], the half-maximal activity concentration (AC50) was 0.92 µM [rising, full curve].
Regarding `COc1cccc(CC(NC(C)=O)C(=O)NC2CCN(S(=O)(=O)c3ccc(NC(C)=O)cc3)CC2)c1` (stereo unspecified), the cell number change turned out to be 2.41%. Besides, the AC50 under setting [2] is 0.103 µM [falling, full curve, poor fit].
Take `Fc1ccccc1COc1ccc2ccccc2c1CNc1nn[nH]n1`: the cell number change amounted to 57.2%. Besides, under setting [1], the AC50 is 3.66 µM [rising, full curve].
In the case of `Cc1cc(Cn2nc(-c3ccccc3)cc2C(=O)NCc2cccc(C(F)(F)F)c2)on1`, the cell number change was -15.5%. Further, under setting [2], the half-maximal activity concentration (AC50) is 29.1 µM [falling, single point].
As to `COc1ccccc1NC(=O)C(CC=C(Cl)Cl)C(C)=O` (stereo unspecified), the cell number change was -13.2%. Besides, the AC50 under setting [2] was 5.17 µM [falling, partial curve].
For the compound `Cc1cc(NC(=O)CSc2nnc(-c3ccco3)n2CC2CCCO2)no1` (stereo unspecified), the cell number change is -0.856%. For the same compound, the half-maximal activity concentration (AC50) under setting [2] was 0.651 µM [rising, partial curve].
As to `O=C(NCc1cccc(Cl)c1)C1CCCN(c2ncnc3c2nc2n3CCCCC2)C1` (stereo unspecified), the cell number change is 3.44%. For the same compound, the AC50 under setting [2] was 6.51 µM [rising, single point].
Regarding `Cc1cc(C(=O)Nc2nc(-c3ccccn3)cs2)ccc1[N+](=O)[O-]`, the cell number change was -10.3%. Also, the AC50 under setting [1] was 3.26 µM [rising, partial curve, poor fit]. The half-maximal activity concentration (AC50) under setting [2] is 2.91 µM [rising, partial curve].
On to `Cc1ccsc1C1C=C(c2cccc(Br)c2)Nc2ncnn21` (stereo unspecified), for which the cell number change is -34.4%. Besides, the concentration at half-maximal activity (AC50) under setting [1] was 0.731 µM [falling, full curve, poor fit].
`CCCCn1c(NC(=O)c2ccco2)c(S(=O)(=O)c2ccc(C)cc2)c2nc3ccccc3nc21`: the cell number change was determined as 32.1%. Moreover, the concentration at half-maximal activity (AC50) under setting [1] was 8.2 µM [rising, partial curve].
On to `CCCCn1c(N)c(N(CC(C)C)C(=O)CSc2n[nH]c(-c3ccc(C)cc3)n2)c(=O)[nH]c1=O`, for which the cell number change is -16.5%.
Turning to `COc1cc(OC)cc(C(=O)NNC(=O)CN2C(=O)NC(C)(c3ccccc3)C2=O)c1` (stereo unspecified), the cell number change stood at 0.855%. Further, the concentration at half-maximal activity (AC50) under setting [2] is 29.1 µM [rising, partial curve, poor fit].
For `CN(Cc1ccccc1)c1ccc(S(=O)(=O)N2CCC(C(=O)O)CC2)cc1[N+](=O)[O-]`, the cell number change was 32.9%. Also, the AC50 under setting [1] is 0.146 µM [rising, full curve, poor fit]. For the same compound, under setting [2], the AC50 was 0.164 µM [rising, full curve].
As to `Cc1ccc(-n2nc3c(c2NC(=O)c2ccc4c(c2)OCO4)CS(=O)(=O)C3)cc1`, the cell number change stood at 13.7%. Under setting [2], the AC50 is 0.461 µM [falling, full curve, poor fit].
For the compound `N#C/C(=C(\O)CCl)c1nnc2n1CCCCC2`, the cell number change is -16.9%. In addition, the AC50 under setting [2] was 0.116 µM [falling, full curve, poor fit].
Take `COc1ccc(C2=NN(C(=O)c3ccc(Cl)c([N+](=O)[O-])c3)C(c3ccccc3)C2)cc1` (stereo unspecified): the cell number change stood at 2.81%. Moreover, the AC50 under setting [2] was 18.4 µM [rising, single point].
As for `COc1cc(OC)cc(C(=O)NNC(=O)CN2C(=O)NC(C)(c3ccc(C)cc3)C2=O)c1` (stereo unspecified), the cell number change turned out to be 20.2%. Further, the AC50 under setting [2] is 29.1 µM [rising, single point].
For the compound `O=C(NCCOCCNC(=O)OCc1ccccc1)OCc1ccccc1`, the cell number change was 11.8%.
As to `CCOC(=O)N1CCN(C(=O)C(C)n2nc(C)n3c(cc4sccc43)c2=O)CC1` (stereo unspecified), the cell number change was found to be 7.18%. Under setting [1], the concentration at half-maximal activity (AC50) was 0.164 µM [rising, full curve, poor fit].
For `CC(C)NC(=O)c1cc2c(=O)n3ccccc3nc2s1`, the cell number change turned out to be 26.1%. Besides, the AC50 under setting [1] was 0.00411 µM [rising, full curve, poor fit]. Under setting [2], the AC50 was 29.1 µM [rising, single point].
As to `CCn1c(C)nnc1SCC(=O)NC1CCCC1`, the cell number change was -10%.
Take `O=C(NCCCn1ccnc1)C1CC(c2ccccc2Cl)=NO1` (stereo unspecified): the cell number change worked out at 6.95%. In addition, the AC50 under setting [2] was 0.206 µM [rising, full curve, poor fit].
As for `CCOC(=O)C(CC)n1cnc2c(nnn2-c2cccc(OC)c2)c1=O` (stereo unspecified), the cell number change was -18%. Besides, the AC50 under setting [2] is 0.58 µM [rising, single point].
